Entries after “also recorded” stand apart in the source; their conditions may differ. For at least one compound, name, drawing or mass did not settle the structure.
Legend:
Assay type in all cases: cell-based, human
SK-LMS-1 = assay: Clonogenic cell proliferation assay, SK-LMS-1; details: SK-LMS-1, p53 conformational mutation; concentration not given
Method: (§1) For clonogenic assay, cells were plated in triplicate at 1×10^3 cells in 6-well plates. Cells were treated or genetically manipulated as described. After 10 to 14 days, colonies were stained with 1% crystal violet in ethanol and photographed.

p53-null H1299 cells = assay: Clonogenic cell proliferation assay, H1299; details: concentration not given
[1] = test system: tumor lines expressing p53 conformational mutations; assay: Clonogenic cell proliferation assay, p53 conformational mutant tumor lines; details: single agent, concentration not given
Method: as §1

[2] = test system: tumor lines with p53 DNA-contact mutations; assay: Clonogenic cell proliferation assay, p53 DNA-contact mutant tumor lines; details: single agent, concentration not given
Method: as §1

## CCC(C)(C)C(=O)O[C@H]1C[C@@H](C)C=C2C=C[C@H](C)[C@H](CC[C@@H]3C[C@@H](O)CC(=O)O3)[C@H]21 [Simvastatin]
SK-LMS-1
  inhibition of proliferation: inhibited proliferation
p53-null H1299 cells
  inhibition of proliferation: inhibited proliferation
[1]
  inhibition of proliferation: inhibited the proliferation; also recorded: inhibiting proliferation
[2]
  inhibition of proliferation: inhibit proliferation
